{
  "source": "paper PMC10710061",
  "target": "SAP05 D66A (purified, for ITC) (Aster Yellows phytoplasma strain Witches Broom (AYWB))",
  "assay": "condition: 20 μM SAP05 mutant in the cell, 200 μM SPL5^ZnF from the syringe; ITC; SPL5^ZnF from the syringe (250 μM for wild-type SAP05, 200 μM for the SAP05–Rpn10^vWA complex or SAP05 mutants) into 20 μM partner in the cell; 25 °C, 20 mM HEPES pH 7.5, 150 mM NaCl; one-site binding model; both purified",
  "note": "These are yes or no findings as the source states them, for the method shown.",
  "data": [
    {"binder": "ZnF domain of Arabidopsis thaliana SPL5, residues 60 to 127 (domain or fragment, UniProt Q9S758 60-127) SRLCQVDRCTVNLTEAKQYYRRHRVCEVHAKASAATVAGVRQRFCQQCSRFHELPEFDEAKRSCRRRL", "values": [
      {"measurement": "binding", "result": "no binding"}
    ]}
  ]
}
